This is an account of results in publication PMC10810452.

Protein sequences, listed by entry. Tags and fused reporters are not part of them.
UniProt F5HCV3: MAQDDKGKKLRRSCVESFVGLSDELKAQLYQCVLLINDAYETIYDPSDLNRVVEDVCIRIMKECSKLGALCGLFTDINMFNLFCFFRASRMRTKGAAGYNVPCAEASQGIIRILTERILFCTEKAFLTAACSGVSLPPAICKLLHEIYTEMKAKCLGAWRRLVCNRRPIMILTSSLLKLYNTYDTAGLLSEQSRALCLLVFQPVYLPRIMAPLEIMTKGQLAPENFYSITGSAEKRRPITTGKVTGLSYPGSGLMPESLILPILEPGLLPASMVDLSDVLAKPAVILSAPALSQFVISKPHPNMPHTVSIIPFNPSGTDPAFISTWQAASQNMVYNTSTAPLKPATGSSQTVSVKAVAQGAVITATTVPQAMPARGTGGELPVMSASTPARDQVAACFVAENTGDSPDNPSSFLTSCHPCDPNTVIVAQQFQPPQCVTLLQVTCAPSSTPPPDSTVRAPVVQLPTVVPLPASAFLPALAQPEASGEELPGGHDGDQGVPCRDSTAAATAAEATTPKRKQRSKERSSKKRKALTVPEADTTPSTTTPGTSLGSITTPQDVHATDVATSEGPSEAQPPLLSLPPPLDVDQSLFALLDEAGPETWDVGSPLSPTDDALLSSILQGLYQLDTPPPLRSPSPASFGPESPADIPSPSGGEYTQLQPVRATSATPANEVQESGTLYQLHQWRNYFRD
UniProt Q15596: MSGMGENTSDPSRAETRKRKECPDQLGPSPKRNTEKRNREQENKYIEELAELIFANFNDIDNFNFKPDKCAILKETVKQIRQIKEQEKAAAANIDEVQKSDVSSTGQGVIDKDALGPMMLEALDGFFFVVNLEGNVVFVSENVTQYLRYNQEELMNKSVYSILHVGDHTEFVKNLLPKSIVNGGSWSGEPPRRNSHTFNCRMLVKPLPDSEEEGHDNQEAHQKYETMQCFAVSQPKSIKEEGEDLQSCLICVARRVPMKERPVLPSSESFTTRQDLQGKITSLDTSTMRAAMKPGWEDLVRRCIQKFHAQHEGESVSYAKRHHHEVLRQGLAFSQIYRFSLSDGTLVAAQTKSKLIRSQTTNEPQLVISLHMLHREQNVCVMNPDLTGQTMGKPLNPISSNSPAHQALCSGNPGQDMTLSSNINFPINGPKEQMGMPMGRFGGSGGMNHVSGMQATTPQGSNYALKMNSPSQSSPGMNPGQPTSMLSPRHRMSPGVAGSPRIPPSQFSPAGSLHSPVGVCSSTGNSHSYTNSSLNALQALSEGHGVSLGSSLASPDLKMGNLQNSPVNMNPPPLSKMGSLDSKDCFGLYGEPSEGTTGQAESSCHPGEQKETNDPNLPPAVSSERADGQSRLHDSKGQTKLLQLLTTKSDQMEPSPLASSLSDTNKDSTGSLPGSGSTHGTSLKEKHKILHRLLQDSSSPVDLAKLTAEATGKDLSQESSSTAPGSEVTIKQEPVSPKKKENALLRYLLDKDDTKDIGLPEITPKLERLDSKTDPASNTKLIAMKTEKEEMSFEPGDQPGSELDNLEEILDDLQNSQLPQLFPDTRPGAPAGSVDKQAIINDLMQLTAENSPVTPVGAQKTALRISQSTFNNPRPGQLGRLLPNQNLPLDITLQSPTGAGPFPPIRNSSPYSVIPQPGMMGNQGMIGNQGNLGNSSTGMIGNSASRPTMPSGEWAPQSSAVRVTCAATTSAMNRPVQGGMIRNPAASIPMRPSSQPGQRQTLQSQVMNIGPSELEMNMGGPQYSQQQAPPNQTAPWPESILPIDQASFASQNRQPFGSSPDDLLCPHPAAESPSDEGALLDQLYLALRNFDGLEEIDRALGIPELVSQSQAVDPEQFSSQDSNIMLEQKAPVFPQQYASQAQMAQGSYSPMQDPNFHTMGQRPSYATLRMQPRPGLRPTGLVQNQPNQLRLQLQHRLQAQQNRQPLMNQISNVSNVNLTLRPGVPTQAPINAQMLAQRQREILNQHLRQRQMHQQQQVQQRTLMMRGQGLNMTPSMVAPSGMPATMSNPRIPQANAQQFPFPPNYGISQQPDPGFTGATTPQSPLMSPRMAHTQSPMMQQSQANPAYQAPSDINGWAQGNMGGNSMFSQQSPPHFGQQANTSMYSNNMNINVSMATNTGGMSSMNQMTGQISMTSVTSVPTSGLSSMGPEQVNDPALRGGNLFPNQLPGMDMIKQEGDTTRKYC

This test has as its target FLAG-HA-K-RTA (Kaposi's sarcoma-associated herpesvirus (KSHV, human herpesvirus 8)) (UniProt F5HCV3). Kind of test: affinity purification with mass spectrometry.

These are yes or no findings as the source states them, for the method shown. In cells and extracts the contact can be indirect. A yes stands for co-enrichment or nearness to the bait. Other partners may have been found.

With NCOA2 (from UniProt Q15596 1-1464), the binding entry was “binds”.
